Source: US12491252B2, “Substituted 3-amino-5-phenylbenzamide compounds as covalent inhibitors of enhancer zeste homolog 2 (EZH2) and proteolysis-targeting chimeric derivatives thereof (PROTACs) that induce degradation of EZH2” (Northwestern University, priority 2021, dated 2025)
pIC50: −log10 of the molar value. Where two headings read alike, the source gives them in different places.

Tests used:
Type in all cases: cell-based
SU-DHL4 cells = test: WST cell viability assay in SU-DHL4 cells; conditions: for pIC50: Homo sapiens, variable slope, read-out: IC50 (best-fit value)
Procedure: (§1) Cell proliferation was measured using WST-1 Kit (Clontech) according to manufacturer's protocol.

22Rv1 cells [1] = test: WST cell viability assay in 22Rv1 cells; conditions: Homo sapiens; Table 4; WST1 cell viability with different doses on 22Rv1; read-out: IC50 (best-fit value)
Procedure: as §1

22Rv1 cells [2] = test: Cell titer glo cell viability assay in 22Rv1 cells; conditions: Homo sapiens; Table 5; Cell titer glo test cell viability with different doses on 22Rv1; read-out: IC50 (best-fit value)
LNCaP cells = test: WST cell proliferation/viability assay in LNCaP cells; conditions: Homo sapiens; Table 3; WST1 test cell viability on LNCaP; [Inhibitor] vs. normalized response; read-out: IC50 (best-fit value)
Procedure: FIG. 19A-19B. (FIG. 19A) WST cell proliferation assay of indicated compounds in LNCaP cells. […] (FIG. 19B) Effects of indicated compounds on EZH2, AR, and FOXA1 by western blot at 1 μM in LNCaP cells.
as §1

SU-DHL6 cells = test: WST cell viability assay in SU-DHL6 cells; conditions: Table 7; WST1 test cell viability with higher dose on SU-DHL6; variable slope
Procedure: as §1

SMILES: CCN(c1cc(-c2ccc(CN3CCOCC3)cc2)cc(C(=O)NCc2c(C)cc(C)[nH]c2=O)c1C)C1CCOCC1 [EPZ-6438, reference compound]
- pIC50 (SU-DHL4 cells; SU-DHL-4, Table 8, WST1 test cell viability within 1 μM on SU-DHL4): 3.98
- pIC50 (SU-DHL4 cells; SU-DHL-4, Table 9, WST1 test cell viability within 1 μM on SU-DHL4 (as titled)): 5.39
- logIC50 (best-fit value) (SU-DHL4 cells; Table 9, WST1 within 1 μM on SU-DHL4 (as titled)): 0.6103
- pIC50 (22Rv1 cells [1]): 4.24
- pIC50 (22Rv1 cells [2]): 4.51
- pIC50 (LNCaP cells): 5.11
- IC50 (best-fit value) (SU-DHL6 cells): Unstable
